No constants are given. Whether binding was seen depends on the method and setting. In cells and extracts the contact can be indirect.
Target: T1, cohesin subunit RAD21 (endogenous) (human (endogenous in BCBL1)) (UniProt O60216)
T1 sequence: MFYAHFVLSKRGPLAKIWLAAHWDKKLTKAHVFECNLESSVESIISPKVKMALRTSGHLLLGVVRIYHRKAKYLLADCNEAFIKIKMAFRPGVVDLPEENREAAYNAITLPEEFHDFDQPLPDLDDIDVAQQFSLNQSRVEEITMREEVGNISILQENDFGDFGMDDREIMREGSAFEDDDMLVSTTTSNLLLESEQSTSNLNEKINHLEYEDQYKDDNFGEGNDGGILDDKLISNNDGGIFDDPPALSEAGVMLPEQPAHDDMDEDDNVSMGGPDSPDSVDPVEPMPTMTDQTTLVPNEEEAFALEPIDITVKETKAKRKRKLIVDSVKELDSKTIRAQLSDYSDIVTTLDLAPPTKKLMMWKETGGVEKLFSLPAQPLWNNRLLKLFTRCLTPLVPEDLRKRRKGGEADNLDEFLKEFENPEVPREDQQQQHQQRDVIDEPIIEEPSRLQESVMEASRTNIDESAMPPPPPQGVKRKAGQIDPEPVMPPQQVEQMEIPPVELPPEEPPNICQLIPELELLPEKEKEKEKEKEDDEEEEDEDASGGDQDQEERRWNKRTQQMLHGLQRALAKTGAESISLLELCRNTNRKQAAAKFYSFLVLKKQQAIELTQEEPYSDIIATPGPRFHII
Experiment: co-IP; endogenous proteins of BCBL1 cells treated with DMSO or JQ1 for 1 hr; IP with antibody to RAD21, BRD2, BRD4 or IgG; Western blot for RAD21, BRD4, BRD2, SMC1 or LANA

Amino acid sequences for entries named in this document (tags omitted).
UniProt P25440: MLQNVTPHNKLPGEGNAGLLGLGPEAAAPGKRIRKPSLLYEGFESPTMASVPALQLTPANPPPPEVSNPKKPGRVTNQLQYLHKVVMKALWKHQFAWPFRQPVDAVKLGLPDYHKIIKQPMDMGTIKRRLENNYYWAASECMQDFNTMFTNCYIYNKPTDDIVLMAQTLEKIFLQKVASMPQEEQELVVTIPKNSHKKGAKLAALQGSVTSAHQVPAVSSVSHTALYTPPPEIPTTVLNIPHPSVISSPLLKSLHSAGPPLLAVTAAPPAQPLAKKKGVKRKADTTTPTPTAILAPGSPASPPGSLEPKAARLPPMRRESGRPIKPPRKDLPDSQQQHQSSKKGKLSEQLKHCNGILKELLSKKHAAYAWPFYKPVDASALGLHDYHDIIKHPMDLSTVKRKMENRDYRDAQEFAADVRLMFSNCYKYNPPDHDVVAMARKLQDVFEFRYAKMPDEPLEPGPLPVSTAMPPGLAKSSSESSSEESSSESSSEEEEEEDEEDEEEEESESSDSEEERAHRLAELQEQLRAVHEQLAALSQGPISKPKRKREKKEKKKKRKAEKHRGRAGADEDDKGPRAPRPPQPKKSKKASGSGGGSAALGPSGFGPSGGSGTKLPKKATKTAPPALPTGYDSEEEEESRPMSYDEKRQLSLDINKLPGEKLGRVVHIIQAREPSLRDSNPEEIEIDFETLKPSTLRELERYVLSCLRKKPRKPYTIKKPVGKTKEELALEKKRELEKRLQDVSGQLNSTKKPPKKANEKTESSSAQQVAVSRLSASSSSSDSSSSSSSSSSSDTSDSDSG

## BRD2 (endogenous) (from UniProt P25440 1-801)
  binding: no binding

Source: publication PMC5287475
